In paper PMC10828586:
Numbering of substitutions follows the chain as printed. No constants are given. Whether binding was seen depends on the method and setting. Binding seen in cells or lysates may run through a third protein. Some entries that bind do so weakly or less than the wild type.

Sequences of proteins named here, by UniProt entry; tags and fusion partners are left off.
UniProt Q9DBL9: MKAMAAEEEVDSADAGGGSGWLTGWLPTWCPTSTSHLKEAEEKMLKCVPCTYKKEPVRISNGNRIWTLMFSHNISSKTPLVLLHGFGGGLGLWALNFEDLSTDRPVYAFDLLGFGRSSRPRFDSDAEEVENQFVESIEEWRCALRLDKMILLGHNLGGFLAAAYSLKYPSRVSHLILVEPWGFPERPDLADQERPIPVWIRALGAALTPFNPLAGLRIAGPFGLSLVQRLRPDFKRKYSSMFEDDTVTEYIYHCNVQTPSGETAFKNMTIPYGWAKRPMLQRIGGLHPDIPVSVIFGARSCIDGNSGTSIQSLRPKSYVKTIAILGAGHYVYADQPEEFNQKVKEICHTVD
UniProt P00722: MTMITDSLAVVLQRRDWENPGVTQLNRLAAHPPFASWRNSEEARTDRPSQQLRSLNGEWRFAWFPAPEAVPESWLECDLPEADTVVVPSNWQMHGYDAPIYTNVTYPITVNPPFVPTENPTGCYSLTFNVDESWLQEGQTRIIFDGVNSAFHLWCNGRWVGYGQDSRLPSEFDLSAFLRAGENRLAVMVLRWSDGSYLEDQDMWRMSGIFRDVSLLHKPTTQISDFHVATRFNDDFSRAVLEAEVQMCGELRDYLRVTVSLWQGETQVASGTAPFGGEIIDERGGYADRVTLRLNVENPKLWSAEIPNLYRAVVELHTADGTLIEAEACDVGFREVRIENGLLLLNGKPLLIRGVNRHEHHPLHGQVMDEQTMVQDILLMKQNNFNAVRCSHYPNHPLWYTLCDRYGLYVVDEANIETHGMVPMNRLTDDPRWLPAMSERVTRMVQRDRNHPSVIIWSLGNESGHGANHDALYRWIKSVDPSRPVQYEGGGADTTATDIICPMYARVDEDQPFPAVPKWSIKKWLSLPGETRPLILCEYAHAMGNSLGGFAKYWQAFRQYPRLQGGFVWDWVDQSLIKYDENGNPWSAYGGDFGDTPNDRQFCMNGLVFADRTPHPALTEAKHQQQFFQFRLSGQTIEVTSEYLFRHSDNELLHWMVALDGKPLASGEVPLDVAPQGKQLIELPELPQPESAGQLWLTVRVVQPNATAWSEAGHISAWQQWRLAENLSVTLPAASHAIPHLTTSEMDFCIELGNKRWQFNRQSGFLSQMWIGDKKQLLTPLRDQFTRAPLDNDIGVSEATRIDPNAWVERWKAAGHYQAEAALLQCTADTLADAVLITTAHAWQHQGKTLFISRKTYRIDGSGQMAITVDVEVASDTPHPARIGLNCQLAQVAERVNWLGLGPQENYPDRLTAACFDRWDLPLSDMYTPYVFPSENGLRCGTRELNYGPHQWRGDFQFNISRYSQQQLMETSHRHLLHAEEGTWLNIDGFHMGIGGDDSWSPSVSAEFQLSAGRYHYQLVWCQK

Tests used:
FLAG-mCGI-58 (mouse) = FLAG-mCGI-58 (mouse) (UniProt Q9DBL9); assay: co-IP; HEK293T cotransfected with FLAG-mCGI-58 and Xpress-mATGL variants; lysis in 50 mM Tris-HCl pH 7.4, 150 mM NaCl, 1% NP-40, 1 mM EDTA; 2 mg lysate on Anti-FLAG M2 affinity gel, 4°C, 3 h; immunoblot with anti-Xpress and anti-FLAG
[1] = molecular target: T1, smt3-mATGL288-StrepII (mouse adipose triglyceride lipase truncated after residue 288), WT (Mus musculus) (UniProt Q8BJ56); assay: pull-down; copurification: both proteins coexpressed in E. coli ArcticExpress (DE3) from polycistronic pST44; cleared lysate loaded on a StrepTrap HP column that holds the StrepII-tagged mATGL288; washes incl. 500 mM KCl; eluted with 10 mM desthiobiotin; fractions immunoblotted with anti-His (mCGI-58) and anti-Strep (mATGL288)
T1 sequence: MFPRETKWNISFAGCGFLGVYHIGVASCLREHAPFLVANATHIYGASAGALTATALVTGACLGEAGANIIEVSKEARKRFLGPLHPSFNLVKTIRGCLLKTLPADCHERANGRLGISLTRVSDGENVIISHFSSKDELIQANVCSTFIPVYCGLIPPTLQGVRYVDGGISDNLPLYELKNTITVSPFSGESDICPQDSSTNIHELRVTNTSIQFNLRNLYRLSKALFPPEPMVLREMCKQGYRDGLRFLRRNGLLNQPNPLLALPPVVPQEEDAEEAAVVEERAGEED

[2] = molecular target: T2, smt3-mATGL288-StrepII I212A (Mus musculus) (UniProt Q8BJ56); assay: as above
T2 sequence: T1 sequence with I212A

[3] = molecular target: T3, smt3-mATGL288-StrepII I212S (Mus musculus) (UniProt Q8BJ56); assay: as above
T3 sequence: T1 sequence with I212S

[4] = molecular target: T4, smt3-mATGL288-StrepII N209A (Mus musculus) (UniProt Q8BJ56); assay: as above
T4 sequence: T1 sequence with N209A

[5] = molecular target: T5, smt3-mATGL288-StrepII N209A/I212A/N215A (Mus musculus) (UniProt Q8BJ56); assay: as above
T5 sequence: T1 sequence with N209A, I212A, N215A

[6] = molecular target: T6, smt3-mATGL288-StrepII N215A (Mus musculus) (UniProt Q8BJ56); assay: as above
T6 sequence: T1 sequence with N215A

Row | binding (FLAG-mCGI-58 (mouse)) | binding [1] | binding [2] | binding [3] | binding [4] | binding [5] | binding [6] | Substance
1 | no binding | – | – | – | – | – | – | Xpress-LacZ (from UniProt P00722 1-1024)
2 | – | binds | binds | binds | binds | binds | binds | smt3-mCGI-58-His6 (mouse comparative gene identification-58) (from UniProt Q9DBL9 1-351)
